Values quoted from earlier work in US20040131704A1, “A method of organic and all natural treatment, prevention and relief of diaper dermatitis and other related skin irritations” (priority 2003, published 2004).
Some entries share one result that the patent states for a list of compounds.

Settings: topical application of Lavender oil

Structure (SMILES): C=CC(C)(CCC=C(C)C)OC(C)=O (stereo not shown) [linalyl acetate]
- time until cleared from the blood: ≤ 90 min
